Reference: US20230355608A1, “TARGETING POLYCYTHEMIA VERA (PV)-INITIATING CELLS BY BLOCKING LEUKOTRIENE BINDING TO THEIR RECEPTORS” (UNIVERSITY OF MASSACHUSETTS, priority 2020, published 2023)
“Also recorded” adds a separate entry of the source.

Tests used:
[1] = system: JAK2V617F-induced PV mice; settings: vs placebo
Procedure: The bone marrow cells from donor mice, pretreated with 5-fluorouracil (5-FU), were infected with retrovirus containing pMSCV-JAK2V617F-GFP under conditions for the induction of PV as described previously, followed by transplantation of the transduced cells into C57BL/6J recipient mice.
To test this hypothesis, bone marrow cells (BM) were collected for FCM analysis after 4 months treatment.
PV model was induced in mice as follows: Bone marrow cells from 5-FU-treated (200 mg/kg) donor mice were transduced twice with JAK2V617F retrovirus in the presence of IL-3, IL-6, and stem cell factor (SCF). The recipient mice received 1,100 cGy lethal gamma irradiation (given by 2 split 550-cGy doses), followed by 2.0×10^6 cells transplantation via tail vein injection.
Hematopoietic cells were collected from peripheral blood and bone marrow of the PV mice, and red blood cells (RBCs) were eliminated using RBC lysis buffer (pH 7.4). Then the cells were stained with fluorescence-labeled antibodies (Gr−1 for neutrophils, c-kit and Sca−1 for stem cells) and subjected to FACS analysis. These antibodies were purchased from eBioscience Biotechnology. Data were acquired on a FACS Calibur flow cytometric analyzer (Becton Dickinson).
Water was used as placebo.

[2] = system: JAK2V617F-cell lines

CC(C)(O)c1ccccc1CC[C@@H](SCC1(CC(=O)[O-])CC1)c1cccc(/C=C/c2ccc3ccc(Cl)cc3n2)c1.[Na+] [Montelukast, (R-(E))-1-(((1-(3-(2-(7-Chloro-2-quinolinyl)ethenyl)phenyl)-3-(2-(1-hydroxy-1-methylethyl)phenyl)propyl)thio)methyl)-cyclopropaneacetic acid]
PV cell infiltration to the spleens ([1]; 150 mg/kg once a day by gavage): less PV cell infiltration to the spleens | number of PSCs (GFP+Lin-c-Kit+Sca-1+) in BM ([1]; after 4 months treatment): dropped to a much lower level | percentage of PSCs (GFP+Lin-c-Kit+Sca-1+) in BM ([1]; after 4 months treatment): dropped to a much lower level | GFP-Lin-c-Kit+Sca-1+ cells in BM ([1]; after 4 months treatment, normal stem cells): did not show a noteworthy difference; also recorded: demonstrates a noteworthy difference | effect in combination with JAK2 inhibitor compounds [2]: synergetic effect
